Measurements taken from the supplement of paper PMC4683952.
Some of the results follow. No stated cut-off is given here; in the data, active = 2 or more and inactive = the rest. Most values lie within the scatter of the assay; repeated measurements hardly agree.

system: Lgr5 (MarsCy1-Lgr5-EGFP, U2OS); assay: cell-surface Lgr5 expression (SCi1 fluorescence, background-subtracted) relative to WT DMSO (fold of DMSO control); higher = more Lgr5 at the plasma membrane; conditions: U2OS MarsCy1-Lgr5-EGFP stable; treatment time: overnight; library: ActiProbe-5K (TimTec); 25 µM

Structure (SMILES) | cell-surface Lgr5 expression
CC12C=CC(=O)C=C1CCC1[C@@H]2C(O)CC2(C)[C@@H](C(=O)CO)CC[C@@H]12 (stereo partly drawn) | inactive: 1.44
Fc1ccc(NC(=S)N2CCN(C(=S)Nc3ccc(F)cc3)CC2)cc1 | inactive: 1.16
CNC(=S)NNC(=O)c1ccco1 | inactive: 1.21
C(#Cc1ccc2sc3ccccc3c2c1)c1ccccc1 | inactive: 1.7
Nn1c(=S)[nH]c2ccccc2c1=O | inactive: 1.24
Cn1ncc(Cl)c1C(=O)NCCn1cc(Br)cn1 | inactive: 1.25
Cc1[nH]nc2c1C(c1cc(Br)cs1)C(C#N)=C(N)O2 (stereo not drawn) | active: 2.11
NC(=O)c1csc2c1CCCC2 | inactive: 1.08
CCOC(=O)Cc1nnc(-c2nnc(CC(=O)OCC)o2)o1 | inactive: 1.11
O=C1NC(=S)S\C1=C/C=C\C=C\Nc1ccccc1 | inactive: 1.37
C(/c1cc(Br)c(cc1)OC)(c1cc(Br)c(cc1)OC)=C\Cl | inactive: 1.47
c1cn2c3c(n1)CCCc3c1cc(C3CCCCC3)ccc12 | inactive: 1.16
C1=CC2CC1CC21COC(c2ccc(N3CCOCC3)cc2)OC1 (stereo not drawn) | inactive: 1.31
CSc1nnnn1-c1ccccc1 | inactive: 1.3
CCOC(=O)Cc1nnn(CC(=O)OCC)n1 | inactive: 1.07
O=C(N/N=C/c1ccco1)c1cccs1 | inactive: 1.16
CCOC(=O)NC(=S)Nc1nncs1 | inactive: 0.857
COC(=O)Cn1[nH]c(=O)ccc1=O | inactive: 1.32
O=c1oc2c3ccccc3oc(=O)c2c2ccccc12 | inactive: 1.35
NC(=O)NCC(=O)NC(Cc1c[nH]cn1)C(=O)O (stereo not drawn) | inactive: 1.2
O=C1NCCN1C(=O)NC1CCCCC1 | inactive: 0.777
N#C/C(=C1\CCCCCN1)c1nnc2n1CCCC2 | inactive: 0.871
Clc1ccc(OCCNCC2CCCO2)cc1 (stereo not drawn) | inactive: 1.44

Structure (SMILES) | cell-surface Lgr5 expression
Cc1nc2ncccn2c1-c1csc(N)n1 | inactive: 1.36
Cc1cn2c(nc1=O)OC1C(O)C(CO)OC12 (stereo not drawn) | inactive: 1.1
Nc1ccc2ncc(Br)cc2c1 | inactive: 0.878
Nc1nonc1/C(=N\O)N1CCCCC1 | inactive: 1.16
O=[N+]([O-])c1ccc(N2CCN3CCCC3C2)c([N+](=O)[O-])c1 (stereo not drawn) | inactive: 1.09
CC1(C)Oc2ccc([N+](=O)[O-])cc2O1 | inactive: 1.23
O=C(CCCCCCCCC(=O)N/N=C/c1ccc([N+](=O)[O-])o1)N/N=C\c1ccc([N+](=O)[O-])o1 | inactive: 1.46
c1ccc(C(Sc2ccccn2)c2ccccc2)cc1 | inactive: 1.12
O=C(NCC1CCCO1)c1ccc(Br)o1 (stereo not drawn) | inactive: 0.973
OCc1cc(F)c(F)cc1Cl | inactive: 1.24
CN1CCN(C(=O)C(=O)N2CCN(C)CC2)CC1 | inactive: 1.14
Clc1ncnc2sc3c(c12)CCCC3 | inactive: 1.31
OCC1OC(n2cnc3c(=S)nc[nH]c32)C(O)C1O (stereo not drawn) | active: 2.09
O=Cc1cc2cc3c4c(c2oc1=O)CCCN4CCC3 | inactive: 1.16
Cl.NCC12CC3CC(CC(C3)C1)C2 | inactive: 0.844
NC(=O)NN1C(=O)/C(=C\c2ccco2)SC1=S | inactive: 1.33
O=c1oc(-c2cc3c(s2)CCCC3)ns1 | inactive: 1.33
O=C1Nc2ccccc2/C1=c1/sc2nc3ccccc3n2c1=O | inactive: 1.11
O=[N+]([O-])c1ccc(Nc2nccs2)c([N+](=O)[O-])c1 | inactive: 1.47
O=C1CCC(=O)N1CCCCCCN1C(=O)CCC1=O | inactive: 0.817
[Br-].c1ccc(C[n+]2csc3ccccc32)cc1 | inactive: 1.28
O=S(=O)(Nc1ccc(Cl)cc1Cl)c1ccc(Cl)cc1 | inactive: 1.09
CSCCC(C(=O)O)N1C(=O)NC2NC(=O)NC21 (stereo not drawn) | inactive: 1.2

Structure (SMILES) | cell-surface Lgr5 expression
[O-][n+]1c2ccccc2[n+]([O-])c2cc(O)ccc21 | inactive: 1.09
CCOC(CN1CCCCC1)OCC | inactive: 0.964
CCN1C(=O)CS/C1=N\N1CCOCC1 | inactive: 1.06
CCn1cc(Br)c(CN(C)C(=O)c2noc(C)c2Cn2nc(C)c([N+](=O)[O-])c2C)n1 | inactive: 1.13
C=CCC(O)(CC=C)C(N)CCSC (stereo not drawn) | inactive: 1.36
CC1Cn2c(COc3ccccc3)nnc2S1 (stereo not drawn) | inactive: 1.12
COc1ccc(C2=Nn3c(nnc3-c3ccccc3F)SC2)cc1OC | inactive: 0.941
N#Cc1c(NC(=O)CCn2cnnn2)sc2c1CCC2 | inactive: 1.13
O=C1CCC(C(=O)NC2C3CC4CC(C3)CC2C4)=NN1 (stereo not drawn) | inactive: 0.833
N#Cc1cnc(S)nc1N | inactive: 1.01
N[C@@H]1CS(=O)(=O)C[C@H]1O | inactive: 1.17
OC1CC2CC1C1CCCC21 (stereo not drawn) | inactive: 1.2
O=[N+]([O-])c1ccc(C2OCOCC2O)cc1 (stereo not drawn) | inactive: 1.2
Nc1nonc1-c1noc(CN2CCOCC2)n1 | inactive: 1.19
Sc1nnc(-c2ccncc2)n1/N=C/c1cccnc1 | inactive: 1.15
C(=N/n1cnnc1)/c1ccc2c(c1)OCO2 | inactive: 0.892
CC1(C)OC(C)(C)c2c1sc(N)c2C#N | inactive: 1.26
COc1cc2c(cc1OC)C(CCCCCl)=NC(C)(C)C2 | inactive: 1.26
CC1(C)CC(N2C(=O)OC3(CCCCC3)C2(C)O)CC(C)(C)N1 (stereo not drawn) | inactive: 1.16
CNc1ccc2c(c1)[S]=c1cc(N)ccc1=N2.Cl | inactive: 1.54
Fc1ccc(N2Cc3ccccc3C2)cc1 | inactive: 0.93
CC(=O)OC1CCC2(C)C(=CCC3C4CC=C(C#N)C4(C)CCC32)C1 (stereo not drawn) | inactive: 1.37
CN1CN(Cc2ccccc2)CNC1=S | inactive: 1.24

Structure (SMILES) | cell-surface Lgr5 expression
N#CCN(CC#N)S(=O)(=O)c1cc(Cl)ccc1Cl | inactive: 1.29
Sc1nnc(C2CCCCC2)n1/N=C\c1cccs1 | inactive: 1.14
Brc1ccc2[nH]c3c(c2c1)CCCCC3 | inactive: 0.989
COc1ccc(NS(=O)(=O)N(C)C)cn1 | inactive: 1.14
CCn1cc(Cl)c(/C=C\C(=O)c2cnn(C)c2)n1 | inactive: 0.276
O=[N+]([O-])c1ccc2c(c1)n1cnnc1c1nncn21 | inactive: 0.885
COC(=O)c1c(N)sc2c1CCC2 | inactive: 0.925
O=C(O)C1C2C=CC(C2)C1C(=O)OCC1CCCO1 (stereo not drawn) | inactive: 1.03
O=c1sc2ccccc2c(Nc2ccc([N+](=O)[O-])cc2)c1[N+](=O)[O-] | inactive: 1.17
Cc1cc(C)n(-c2nnc(-n3nc(C)cc3C)nn2)n1 | inactive: 1.2
c1ccc(-c2ccc3ccccc3n2)nc1 | inactive: 0.983
N#CC1=C(N)Oc2[nH]nc(-c3cccs3)c2C1c1cccs1 (stereo not drawn) | inactive: 0.757
Cc1cc(C)c(S(=O)(=O)NCC2CCCO2)c(C)c1 (stereo not drawn) | inactive: 0.844
CC(C)N(c1snnc1N)C(C)C | inactive: 0.861
Cc1cc(C)n(-c2nnc(N)nn2)n1 | inactive: 1.4
O=c1oc2cc(OCCO)ccc2c2c1CCC2 | inactive: 1.41
Cc1cc(C(F)F)nc(S[C@H]2C/C(=N/O)[C@@H]3OC[C@H]2O3)n1 | inactive: 1.16
COc1cc2c(cc1OC)NC(=O)C2 | inactive: 1.35
CCC(C)C(=O)Nc1nnc(CC(C)(C)C)s1 (stereo not drawn) | inactive: 1.33
Cc1cc(C)n(N)c(=O)c1C(N)=O | inactive: 1.09
C1CCCN(CC2CCCCN2)CC1 (stereo not drawn) | inactive: 1.31
C=CCNc1nc2nc(N)nc(N)c2s1 | inactive: 1.16
Cc1ccc2c(c1)-c1c(ssc1=S)C(C)(C)N2C | inactive: 1.38

Structure (SMILES) | cell-surface Lgr5 expression
c1ccc(Cn2c(-c3ccccc3)cs/c2=N\c2ccccc2)cc1 | inactive: 0.814
Fc1ccc(Cn2nnc(-c3cccnc3)n2)cc1 | inactive: 1.36
Cc1nc(NC(=N)N)nc2ccccc12 | active: 2.38
N#CC1=C(N)OC2=C(CCC/C2=C/c2cccs2)C1c1cccs1 (stereo not drawn) | inactive: 0.625
NC(=[NH2+])SCc1ccc(Cl)cc1Cl.[Cl-] | inactive: 1.14
CS(=O)(=O)Nc1ccc2c3c(cccc13)CC2 | inactive: 1.31
Cc1nn2cc(-n3cc([N+](=O)[O-])cn3)cnc2c1[N+](=O)[O-] | inactive: 1.15
Cc1ccc(CN2CCNCC2CCO)o1 (stereo not drawn) | inactive: 1.21
Cc1cc(=O)oc(C)c1C(=O)O | inactive: 1.27
CNc1nc(N)c(C(=O)C(C)(C)C)s1 | inactive: 1.24
O=C(O)COCC12CC3CC(CC(C3)C1)C2 | inactive: 1.26
O=S(=O)(c1ccc(Oc2ccc(Br)cc2)cc1)N1CCOCC1 | inactive: 0.989
CCc1sc(/C=C(/C#N)C(N)=S)cc1Br | inactive: 1.01
CCCCn1c(C23CC4CC(CC(C4)C2)C3)cn2c3c(=O)n(C)c(=O)n(C)c3nc12 | inactive: 1
NC(=O)c1c(NC(=O)C2CCCCC2)sc2c1CCCC2 | inactive: 1.1
CC(=O)c1c(C)[nH]c(C(=O)OC(C)(C)C)c1C | inactive: 0.972
O=C(O)CCc1cn(CCC(=O)O)cn1 | inactive: 1.24
Nc1ccc2nn(-c3ccc(Br)cc3)nc2c1 | inactive: 0.971
C(=N\c1ccccn1)/c1cccc2ccccc12 | inactive: 1.31
O=C(Nc1nccs1)C(=S)N1CCOCC1 | inactive: 1.22
Nc1c(-c2ccccc2)no[n+]1[O-] | inactive: 1.36

Some of these compounds in order of molecular weight, high to low.
Structure (SMILES) | cell-surface Lgr5 expression
O=S(=O)(c1ccc(Oc2ccc(Br)cc2)cc1)N1CCOCC1 | inactive: 0.989
N#CC1=C(N)OC2=C(CCC/C2=C/c2cccs2)C1c1cccs1 (stereo not drawn) | inactive: 0.625
NC(=O)c1c(NC(=O)C2CCCCC2)sc2c1CCCC2 | inactive: 1.1
Cc1nn2cc(-n3cc([N+](=O)[O-])cn3)cnc2c1[N+](=O)[O-] | inactive: 1.15
O=C(Nc1nccs1)C(=S)N1CCOCC1 | inactive: 1.22
Cc1nc(NC(=N)N)nc2ccccc12 | active: 2.38
